Results reported in patent publication US8608842B2, “Infrared absorbing composition, infrared absorbing ink, recorded article, image recording method, and image detecting method” (FUJIFILM Corporation, priority 2010, dated 2013).

Experiments:
[1] = Ultraviolet curable ink of Example 4: reflected light of mark for copy protection, before and after xenon irradiation; type: physicochemical; settings: reflection intensity of mark area / area outside mark, as ratio to comparative infrared absorbing agent A set to 1
Experimental: By mixing the components of the composition shown below, an ultraviolet curable ink having an infrared absorbing property was prepared.
By using the ultraviolet curable ink thus obtained, a mark for copy protection was printed on the same base paper as that used in Example 1 by Gravure printing. On top of the printed mark for copy protection, each of the three kinds of a process ink (FDOL Yellow, FDOL Magenta, and FDOL Cyan, trade names, manufactured by TOYO INK MFG. CO., LTD.) was applied as a layer by Gravure printing, or a mixture ink in which the three kinds of a process ink are mixed was applied as a layer by Gravure printing to hide the mark for copy protection, thus obtaining a printed article.
The mark for copy protection that is hidden by the process ink was irradiated with infrared light using a linear sensor (trade name: TCD1500C, manufactured by Toshiba) in which the infrared cut-off filter of linear sensor was replaced with an infrared transmitting filter (trade name: IR83, manufactured by Hoya) as a detection device, and the reflected light was detected simultaneously.
The reflection light intensity in the area of the mark for copy protection at the time of detecting the mark was divided by the reflection light intensity of the area outside the mark for copy protection. The resulting value of the comparative infrared absorbing agent A was set to 1, and a ratio of the resulting value with respect to the resulting value of the comparative infrared absorbing agent A was calculated for each compound.
In addition, the obtained printed article was irradiated continuously with xenon light of 70,000 lux for 72 hours by using a Xenon lamp. After the irradiation, similar to above, the reflection light intensity of the area of the mark for copy protection was divided by the reflection light intensity of the area outside the mark for copy protection, and the variation ratio [%] compared to the value before the irradiation was calculated to use it as an index for evaluation of light resistance.

[2] = Bar code pattern reading (PCS) of printed article before and after xenon light irradiation (light resistance); type: physicochemical
Experimental: By mixing the components of the composition shown below, the infrared absorbing printing ink (1) was prepared.
By using each of the infrared absorbing printing ink obtained above, a bar code pattern was formed on a regular paper (trade name: MP-120, manufactured by PLUS Corporation), i.e., a base paper, by Gravure printing.
Subsequently, on the formed bar code pattern, another bar code pattern was additionally formed by using the infrared absorbing ink (2) having the composition shown below.
Next, on top of the bar code patterns formed by disposing two layers, three kinds of process inks having infrared transmittance (FDOL Yellow, FDOL Magenta, and FDOL Cyan, manufactured by TOYO INK MFG. CO., LTD. (trade names, manufactured by TOYO INK MFG. CO., LTD.) were further applied by Gravure printing to form a colored layer made of three visible colors (cyan, magenta, and yellow). As a result, a printed article having a bar code pattern disposed inside the matter was produced.
Two kinds of semiconductor laser beam having wavelengths of 830 nm and 905 nm respectively were irradiated onto the thus obtained printed article, and the detection was made by using a filter which cuts off the emission light having wavelength of 950 nm or less. As a result, it was possible to detect the pattern formed by the infrared absorbing ink.
Subsequently, xenon light of 70,000 lux was irradiated continuously for 200 hours onto the printed article by using a xenon lamp. After that, the reading state of the bar code pattern after the irradiation was evaluated. For the evaluation, PCS (print•contrast•signal) of 0.6 or more was evaluated as “good,” and PCS (print•contrast•signal) of less than 0.6 was evaluated as “bad.” The evaluation results are shown in Table 2 below.
The printed article was prepared in the same manner as Example 1 except that the solvent (a mixture solvent of toluene and methyl isobutyl ketone) in the composition of the infrared absorbing ink (1) and (2) is replaced with n-octane (SP value: 7.6), butyl acetate (SP value: 8.5), or isopropyl alcohol (IPA; SP values: 11.5), and evaluated.
The comparative printed article was prepared in the same manner as Example 1 except that the solvent (a mixture solvent of toluene and methyl isobutyl ketone) in the composition of the infrared absorbing ink (1) and (2) is replaced with n-pentane (SP value: 7.0; Example 2) or ethanol (SP value: 12.7; Example 3), and evaluated.

[3] = Example 2, ink solvent n-pentane (SP value: 7.0)
[4] = Example 3, ink solvent ethanol (SP value: 12.7)
[5] = ink solvent IPA (SP value: 11.5)
[6] = ink solvent butyl acetate (SP value: 8.5)
[7] = ink solvent n-octane (SP value: 7.6)
[8] = ink solvent toluene/methyl isobutyl ketone = 70/30

CCOc1c2c(c(OCC)c3ccccc13)-c1nc-2nc2[n-]c(nc3nc(nc4[n-]c(n1)c1c(OCC)c5ccccc5c(OCC)c41)-c1c-3c(OCC)c3ccccc3c1OCC)c1c(OCC)c3ccccc3c(OCC)c21.[Cu+2] [Compound 23]
Strength of reflected light before irradiation [1]: 0.5 | Reading before irradiation [2, 3]: Good (PCS (print•contrast•signal) of 0.6 or more was evaluated as “good,”) | Reading before irradiation [2, 4]: Good (PCS (print•contrast•signal) of 0.6 or more was evaluated as “good,”) | Reading before irradiation [2, 5]: Good (PCS (print•contrast•signal) of 0.6 or more was evaluated as “good,”) | Reading before irradiation [2, 6]: Good (PCS (print•contrast•signal) of 0.6 or more was evaluated as “good,”) | Reading before irradiation [2, 7]: Good (PCS (print•contrast•signal) of 0.6 or more was evaluated as “good,”) | Reading before irradiation [2, 8]: Good (PCS (print•contrast•signal) of 0.6 or more was evaluated as “good,”)

CCCCOc1c2c(c(OCCCC)c3ccccc13)C1=Nc3c4c(OCCCC)c5ccccc5c(OCCCC)c4c4[n]3[Cu][n]3c(c5c(OCCCC)c6ccccc6c(OCCCC)c5c3=NC3=NC(=N4)c4c3c(OCCCC)c3ccccc3c4OCCCC)=NC2=N1 [Compound 24]
Strength of reflected light before irradiation [1]: 0.5 | Reading before irradiation [2, 3]: Good (PCS (print•contrast•signal) of 0.6 or more was evaluated as “good,”) | Reading before irradiation [2, 4]: Good (PCS (print•contrast•signal) of 0.6 or more was evaluated as “good,”) | Reading before irradiation [2, 5]: Good (PCS (print•contrast•signal) of 0.6 or more was evaluated as “good,”) | Reading before irradiation [2, 6]: Good (PCS (print•contrast•signal) of 0.6 or more was evaluated as “good,”) | Reading before irradiation [2, 7]: Good (PCS (print•contrast•signal) of 0.6 or more was evaluated as “good,”) | Reading before irradiation [2, 8]: Good (PCS (print•contrast•signal) of 0.6 or more was evaluated as “good,”)

CCCCCCCCOc1c2c(c(OCCCCCCCC)c3ccccc13)C1=Nc3c4c(OCCCCCCCC)c5ccccc5c(OCCCCCCCC)c4c4[n]3[Cu][n]3c(c5c(OCCCCCCCC)c6ccccc6c(OCCCCCCCC)c5c3=NC3=NC(=N4)c4c3c(OCCCCCCCC)c3ccccc3c4OCCCCCCCC)=NC2=N1 [Compound 25]
Strength of reflected light before irradiation [1]: 0.2 | Reading before irradiation [2, 3]: Good (PCS (print•contrast•signal) of 0.6 or more was evaluated as “good,”) | Reading before irradiation [2, 4]: Good (PCS (print•contrast•signal) of 0.6 or more was evaluated as “good,”) | Reading before irradiation [2, 5]: Good (PCS (print•contrast•signal) of 0.6 or more was evaluated as “good,”) | Reading before irradiation [2, 6]: Good (PCS (print•contrast•signal) of 0.6 or more was evaluated as “good,”) | Reading before irradiation [2, 7]: Good (PCS (print•contrast•signal) of 0.6 or more was evaluated as “good,”) | Reading before irradiation [2, 8]: Good (PCS (print•contrast•signal) of 0.6 or more was evaluated as “good,”)

CCCCCCCCOc1c2c(c(OCCCCCCCC)c3ccccc13)C1=Nc3c4c(OCCCCCCCC)c5ccccc5c(OCCCCCCCC)c4c4[n]3[Zn][n]3c(c5c(OCCCCCCCC)c6ccccc6c(OCCCCCCCC)c5c3=NC3=NC(=N4)c4c3c(OCCCCCCCC)c3ccccc3c4OCCCCCCCC)=NC2=N1 [Compound 27]
Strength of reflected light before irradiation [1]: 0.3 | Reading before irradiation [2, 3]: Good (PCS (print•contrast•signal) of 0.6 or more was evaluated as “good,”) | Reading before irradiation [2, 4]: Good (PCS (print•contrast•signal) of 0.6 or more was evaluated as “good,”) | Reading before irradiation [2, 5]: Good (PCS (print•contrast•signal) of 0.6 or more was evaluated as “good,”) | Reading before irradiation [2, 6]: Good (PCS (print•contrast•signal) of 0.6 or more was evaluated as “good,”) | Reading before irradiation [2, 7]: Good (PCS (print•contrast•signal) of 0.6 or more was evaluated as “good,”) | Reading before irradiation [2, 8]: Good (PCS (print•contrast•signal) of 0.6 or more was evaluated as “good,”)

Nc1ccccc1Sc1c2c(c(Sc3ccccc3N)c3c1C1=Nc4c5c(Sc6ccccc6N)c6c(c(Sc7ccccc7N)c5c5[n]4[Cu][n]4c(c7c(Sc8ccccc8N)c8c(c(Sc9ccccc9N)c7c4=NC4=NC(=N5)c5c(Sc7ccccc7N)c7c(c(Sc9ccccc9N)c54)NC4C=CC=CC4S7)SC4C=CC=CC4N8)=NC3=N1)NC1C=CC=CC1S6)SC1C=CC=CC1N2 (centres unmarked) [Compound 69]
Strength of reflected light before irradiation [1]: 0.4 | Reading before irradiation [2, 3]: Good (PCS (print•contrast•signal) of 0.6 or more was evaluated as “good,”) | Reading before irradiation [2, 4]: Good (PCS (print•contrast•signal) of 0.6 or more was evaluated as “good,”) | Reading before irradiation [2, 5]: Good (PCS (print•contrast•signal) of 0.6 or more was evaluated as “good,”) | Reading before irradiation [2, 6]: Good (PCS (print•contrast•signal) of 0.6 or more was evaluated as “good,”) | Reading before irradiation [2, 7]: Good (PCS (print•contrast•signal) of 0.6 or more was evaluated as “good,”) | Reading before irradiation [2, 8]: Good (PCS (print•contrast•signal) of 0.6 or more was evaluated as “good,”)

Nc1ccccc1Sc1c2c(c(Sc3ccccc3N)c3c1C1=Nc4c5c(Sc6ccccc6N)c6c(c(Sc7ccccc7N)c5c5[n]4[V](=[O])[n]4c(c7c(Sc8ccccc8N)c8c(c(Sc9ccccc9N)c7c4=NC4=NC(=N5)c5c(Sc7ccccc7N)c7c(c(Sc9ccccc9N)c54)NC4C=CC=CC4S7)SC4C=CC=CC4N8)=NC3=N1)NC1C=CC=CC1S6)SC1C=CC=CC1N2 (centres unmarked) [Compound 71]
Strength of reflected light before irradiation [1]: 0.3 | Reading before irradiation [2, 3]: Good (PCS (print•contrast•signal) of 0.6 or more was evaluated as “good,”) | Reading before irradiation [2, 4]: Good (PCS (print•contrast•signal) of 0.6 or more was evaluated as “good,”) | Reading before irradiation [2, 5]: Good (PCS (print•contrast•signal) of 0.6 or more was evaluated as “good,”) | Reading before irradiation [2, 6]: Good (PCS (print•contrast•signal) of 0.6 or more was evaluated as “good,”) | Reading before irradiation [2, 7]: Good (PCS (print•contrast•signal) of 0.6 or more was evaluated as “good,”) | Reading before irradiation [2, 8]: Good (PCS (print•contrast•signal) of 0.6 or more was evaluated as “good,”)

CCCCCCCCN1/C(=C/C=C/C=C/C=C/C2=[N+](CCCCCCCC)c3ccc4ccccc4c3C2(C)C)C(C)(C)c2c1ccc1ccccc21.Cc1ccc(S(=O)(=O)[O-])cc1 [reference compound]
Strength of reflected light before irradiation [1]: 0.9 | Reading before irradiation [2, 8]: Good (PCS (print•contrast•signal) of 0.6 or more was evaluated as “good,”)

Some compounds share one wording; it may come from a single statement.
